Taken from: PubChem BioAssay AID1259254 (NCATS, 2017)

- Purpose: 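Gene knock-downs that lead to re-replication, shown by excess G2 DNA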 (primary screen)
- Cells: human HCT116 colorectal cancer cells
- Reagents: single siRNA against human genes
- Timing: 3 days
- Measurement: 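Imaged Hoechst DNA stain sorts each cell into a cycle phase by DNA amount; per plate, G2 fraction set to 0% for non-targeting and 100% for GMNN siRNA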
- Reading the numbers: G2 robust z-score and G2 cells, % of GMNN control: higher = more G2 cells, more excess DNA replication; raw share of cells in G2: higher = larger share of cells with G2 DNA content
- Call rule: 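Active siRNAs have a G2 robust z of 5 or more median absolute deviations over the median, which in these data means about 38% or higher of GMNN control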
In all, the deposit lists about 59,000 reagents; below is a random part of them. About 1,550 of all reagents (2.6%) count as active. 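G2 share is only a proxy for re-replication; each gene was hit by three separate siRNAs, and active genes were retested.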 Raw values vary from plate to plate and are shown uncorrected. The numbers tell different reagents against one gene apart. No sequences are given here. The record does not give: the amount of reagent.

gene symbol | siRNA no. | G2 robust z-score | G2 cells, % of GMNN control | raw share of cells in G2 (%) | call
SRL | 1 | -0.839 | -2.93 | 4.69 | inactive
SRL | 2 | -1.01 | -4.13 | 3.13 | inactive
SRL | 3 | -0.287 | 0.95 | 4.27 | inactive
P2RY11 | 1 | -0.0219 | 2.81 | 4.16 | inactive
P2RY11 | 2 | -0.767 | -2.43 | 3.77 | inactive
P2RY11 | 3 | -0.096 | 2.29 | 6.07 | inactive
SFI1 | 1 | 2.24 | 18.7 | 13.8 | inactive
SFI1 | 2 | 2.02 | 17.2 | 11.1 | inactive
SFI1 | 3 | -0.776 | -2.49 | 2.5 | inactive
ZNF317 | 1 | -0.766 | -2.43 | 1.94 | inactive
ZNF317 | 2 | -1.28 | -6.04 | 3.18 | inactive
ZNF317 | 3 | 0.474 | 6.31 | 5.61 | inactive
LHFPL5 | 1 | 0.0437 | 3.27 | 4.77 | inactive
LHFPL5 | 2 | 2.55 | 20.9 | 10.3 | inactive
LHFPL5 | 3 | -0.183 | 1.68 | 3.73 | inactive
HECTD4 | 1 | 0.804 | 8.62 | 6.69 | inactive
HECTD4 | 2 | -0.677 | -1.79 | 2.36 | inactive
HECTD4 | 3 | -0.998 | -4.06 | 1.48 | inactive
HECTD4 | 4 | -0.977 | -3.91 | 2.22 | inactive
HECTD4 | 5 | 0.148 | 4.01 | 4.6 | inactive
HECTD4 | 6 | 6.17 | 46.4 | 17.4 | active

No new results follow: an excerpt of the list.
gene symbol | siRNA no. | G2 robust z-score | G2 cells, % of GMNN control | raw share of cells in G2 (%) | call
LHFPL5 | 3 | -0.183 | 1.68 | 3.73 | inactive
HECTD4 | 1 | 0.804 | 8.62 | 6.69 | inactive
HECTD4 | 2 | -0.677 | -1.79 | 2.36 | inactive
HECTD4 | 3 | -0.998 | -4.06 | 1.48 | inactive

Next results follow.
gene symbol | siRNA no. | G2 robust z-score | G2 cells, % of GMNN control | raw share of cells in G2 (%) | call
NXT2 | 1 | 0.614 | 7.28 | 7.22 | inactive
NXT2 | 2 | 1.44 | 13.1 | 10.7 | inactive
NXT2 | 3 | 1.58 | 14.1 | 7.49 | inactive
KLHL38 | 1 | -1.05 | -4.45 | 2.46 | inactive
KLHL38 | 2 | 1.48 | 13.4 | 9.12 | inactive
KLHL38 | 3 | 0.855 | 8.98 | 7.81 | inactive
ARHGDIG | 1 | 0.208 | 4.43 | 6.23 | inactive
ARHGDIG | 2 | 1.47 | 13.3 | 9.8 | inactive
ARHGDIG | 3 | 0.856 | 8.99 | 7.34 | inactive
SAE1 | 1 | 1.3 | 12.1 | 9.67 | inactive
SAE1 | 2 | 1.13 | 10.9 | 6.92 | inactive
SAE1 | 3 | 0.918 | 9.43 | 8.77 | inactive
PTPN9 | 1 | 5.54 | 41.9 | 18.4 | active
PTPN9 | 2 | -0.408 | 0.099 | 4.33 | inactive
PTPN9 | 3 | 0.128 | 3.87 | 4.66 | inactive
SMAD2 | 1 | 1.95 | 16.7 | 12.1 | inactive
SMAD2 | 2 | 5.03 | 38.4 | 19.4 | active
SMAD2 | 3 | 4.79 | 36.7 | 16.6 | inactive
LONRF3 | 1 | 0.973 | 9.81 | 8.52 | inactive
LONRF3 | 2 | -0.258 | 1.15 | 4.81 | inactive
LONRF3 | 3 | -0.245 | 1.24 | 2.72 | inactive
KIFC3 | 1 | -1.1 | -4.76 | 3.87 | inactive
KIFC3 | 2 | 2.67 | 21.8 | 12.2 | inactive
KIFC3 | 3 | -0.578 | -1.1 | 4.64 | inactive
KIF26A | 1 | -1.11 | -4.81 | 3.98 | inactive
KIF26A | 2 | -1.09 | -4.67 | 2.64 | inactive
KIF26A | 3 | -0.151 | 1.9 | 4.61 | inactive
